Some of these results come from one statement about several compounds together. For at least one compound, name, drawing or mass did not settle the structure.
Test system: Pyrenophora teres
Test: In vivo test on Pyrenophora teres (barley)/preventive
Details: 500 ppm of active ingredient, preventive, inoculated one day after spraying, evaluated 7-9 days after the inoculation

For `Cc1nn(C)c(F)c1C(=S)N(C1CC1)C1CCCCC1c1ccccc1` (stereo not shown) [Compound 20], the efficacy was at least 70%.
